# Data from the supplement of paper PMC8728848.
# This is one part of the list.
# Legend:
# Assay in all cases: glycan array binding signal (z-score within array); higher = stronger binding
# Conditions in all cases: glycan notation: IUPAC condensed, linker removed
# [1] = target: Gal(b1-4)GlcNAc(b1-2)[Gal(b1-4)GlcNAc(b1-6)]Man(a1-6)[GlcNAc(b1-4)][Gal(b1-4)GlcNAc(b1-2)Man(a1-3)]Man(b1-4)GlcNAc(b1-4)GlcNAc
# Outline: (§1)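 Arrays were curated from the Consortium for Functional Glycomics database, 3228 in total, and kept only where the protein sequence was available. Binding is expressed as a within-array Z-score. This score was averaged across arrays of the same protein sequence at different concentrations or buffers and across linkers, and negative values can be read as non-binding.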
# [2] = target: Gal(b1-4)GlcNAc(b1-2)[Gal(b1-4)GlcNAc(b1-6)]Man(a1-6)[GlcNAc(b1-4)][Gal(b1-4)GlcNAc(b1-2)[Gal(b1-4)GlcNAc(b1-4)]Man(a1-3)]Man(b1-4)GlcNAc(b1-4)[Fuc(a1-6)]GlcNAc
# Outline: as §1
# [3] = target: Gal(b1-4)GlcNAc(b1-3)Gal(b1-3)GalNAc
# Outline: as §1
# [4] = target: Gal(b1-4)GlcNAc(b1-3)Gal(b1-3)GlcNAc
# Outline: as §1
# [5] = target: Gal(b1-4)GlcNAc(b1-3)Gal(b1-4)Glc
# Outline: as §1
# [6] = target: Gal(b1-4)GlcNAc(b1-3)Gal(b1-4)GlcNAc
# Outline: as §1
# [7] = target: Gal(b1-4)GlcNAc(b1-3)Gal(b1-4)GlcNAc(b1-2)Man(a1-3)[Gal(b1-4)GlcNAc(b1-3)Gal(b1-4)GlcNAc(b1-2)Man(a1-6)]Man(b1-4)GlcNAc(b1-4)GlcNAc
# Outline: as §1
# [8] = target: Gal(b1-4)GlcNAc(b1-3)Gal(b1-4)GlcNAc(b1-2)Man(a1-3)[Gal(b1-4)GlcNAc(b1-3)Gal(b1-4)GlcNAc(b1-2)Man(a1-6)]Man(b1-4)GlcNAc(b1-4)[Fuc(a1-6)]GlcNAc
# Outline: as §1
# [9] = target: Gal(b1-4)GlcNAc(b1-3)Gal(b1-4)GlcNAc(b1-2)[Gal(b1-4)GlcNAc(b1-3)Gal(b1-4)GlcNAc(b1-6)]Man(a1-6)[Gal(b1-4)GlcNAc(b1-3)Gal(b1-4)GlcNAc(b1-2)Man(a1-3)]Man(b1-4)GlcNAc(b1-4)GlcNAc
# Outline: as §1
# [10] = target: Gal(b1-4)GlcNAc(b1-3)Gal(b1-4)GlcNAc(b1-2)[Gal(b1-4)GlcNAc(b1-3)Gal(b1-4)GlcNAc(b1-6)]Man(a1-6)[Gal(b1-4)GlcNAc(b1-3)Gal(b1-4)GlcNAc(b1-2)Man(a1-3)]Man(b1-4)GlcNAc(b1-4)[Fuc(a1-6)]GlcNAc
# Outline: as §1
# [11] = target: Gal(b1-4)GlcNAc(b1-3)Gal(b1-4)GlcNAc(b1-3)Gal(b1-4)GlcNAc
# Outline: as §1
# [12] = target: Gal(b1-4)GlcNAc(b1-3)Gal(b1-4)GlcNAc(b1-3)Gal(b1-4)GlcNAc(b1-2)Man(a1-3)[Gal(b1-4)GlcNAc(b1-3)Gal(b1-4)GlcNAc(b1-3)Gal(b1-4)GlcNAc(b1-2)Man(a1-6)]Man(b1-4)GlcNAc(b1-4)GlcNAc
# Outline: as §1
# [13] = target: Gal(b1-4)GlcNAc(b1-3)Gal(b1-4)GlcNAc(b1-3)Gal(b1-4)GlcNAc(b1-2)Man(a1-3)[Gal(b1-4)GlcNAc(b1-3)Gal(b1-4)GlcNAc(b1-3)Gal(b1-4)GlcNAc(b1-2)Man(a1-6)]Man(b1-4)GlcNAc(b1-4)[Fuc(a1-6)]GlcNAc
# Outline: as §1
# [14] = target: Gal(b1-4)GlcNAc(b1-3)Gal(b1-4)GlcNAc(b1-3)Gal(b1-4)GlcNAc(b1-2)[Gal(b1-4)GlcNAc(b1-3)Gal(b1-4)GlcNAc(b1-3)Gal(b1-4)GlcNAc(b1-6)]Man(a1-6)[Gal(b1-4)GlcNAc(b1-3)Gal(b1-4)GlcNAc(b1-3)Gal(b1-4)GlcNAc(b1-2)Man(a1-3)]Man(b1-4)GlcNAc(b1-4)[Fuc(a1-6)]GlcNAc
# Outline: as §1
# [15] = target: Gal(b1-4)GlcNAc(b1-3)Gal(b1-4)GlcNAc(b1-3)Gal(b1-4)GlcNAc(b1-3)Gal(b1-4)GlcNAc(b1-2)Man(a1-3)[Gal(b1-4)GlcNAc(b1-3)Gal(b1-4)GlcNAc(b1-3)Gal(b1-4)GlcNAc(b1-3)Gal(b1-4)GlcNAc(b1-2)Man(a1-6)]Man(b1-4)GlcNAc(b1-4)GlcNAc
# Outline: as §1
# [16] = target: Gal(b1-4)GlcNAc(b1-3)Gal(b1-4)GlcNAc(b1-3)Gal(b1-4)GlcNAc(b1-3)Gal(b1-4)GlcNAc(b1-2)Man(a1-3)[Gal(b1-4)GlcNAc(b1-3)Gal(b1-4)GlcNAc(b1-3)Gal(b1-4)GlcNAc(b1-3)Gal(b1-4)GlcNAc(b1-2)Man(a1-6)]Man(b1-4)GlcNAc(b1-4)[Fuc(a1-6)]GlcNAc
# Outline: as §1
# [17] = target: Gal(b1-4)GlcNAc(b1-3)Gal(b1-4)GlcNAc(b1-3)Gal(b1-4)GlcNAc(b1-3)Gal(b1-4)GlcNAc(b1-2)[Gal(b1-4)GlcNAc(b1-3)Gal(b1-4)GlcNAc(b1-3)Gal(b1-4)GlcNAc(b1-3)Gal(b1-4)GlcNAc(b1-6)]Man(a1-6)[Gal(b1-4)GlcNAc(b1-3)Gal(b1-4)GlcNAc(b1-3)Gal(b1-4)GlcNAc(b1-3)Gal(b1-4)GlcNAc(b1-2)Man(a1-3)]Man(b1-4)GlcNAc(b1-4)[Fuc(a1-6)]GlcNAc
# Outline: as §1
# [18] = target: Gal(b1-4)GlcNAc(b1-3)Gal(b1-4)GlcNAc(b1-3)Gal(b1-4)GlcNAc(b1-3)Gal(b1-4)GlcNAc(b1-3)Gal(b1-4)GlcNAc(b1-2)Man(a1-3)[Gal(b1-4)GlcNAc(b1-3)Gal(b1-4)GlcNAc(b1-3)Gal(b1-4)GlcNAc(b1-3)Gal(b1-4)GlcNAc(b1-3)Gal(b1-4)GlcNAc(b1-2)Man(a1-6)]Man(b1-4)GlcNAc(b1-4)GlcNAc
# Outline: as §1
# [19] = target: Gal(b1-4)GlcNAc(b1-3)Gal(b1-4)GlcNAc(b1-3)Gal(b1-4)GlcNAc(b1-3)Gal(b1-4)GlcNAc(b1-3)Gal(b1-4)GlcNAc(b1-2)Man(a1-3)[Gal(b1-4)GlcNAc(b1-3)Gal(b1-4)GlcNAc(b1-3)Gal(b1-4)GlcNAc(b1-3)Gal(b1-4)GlcNAc(b1-3)Gal(b1-4)GlcNAc(b1-2)Man(a1-6)]Man(b1-4)GlcNAc(b1-4)[Fuc(a1-6)]GlcNAc
# Outline: as §1
# [20] = target: Gal(b1-4)GlcNAc(b1-3)Gal(b1-4)GlcNAc(b1-3)Gal(b1-4)GlcNAc(b1-3)Gal(b1-4)GlcNAc(b1-3)Gal(b1-4)GlcNAc(b1-2)[Gal(b1-4)GlcNAc(b1-3)Gal(b1-4)GlcNAc(b1-3)Gal(b1-4)GlcNAc(b1-3)Gal(b1-4)GlcNAc(b1-3)Gal(b1-4)GlcNAc(b1-6)]Man(a1-6)[Gal(b1-4)GlcNAc(b1-3)Gal(b1-4)GlcNAc(b1-3)Gal(b1-4)GlcNAc(b1-3)Gal(b1-4)GlcNAc(b1-3)Gal(b1-4)GlcNAc(b1-2)Man(a1-3)]Man(b1-4)GlcNAc(b1-4)[Fuc(a1-6)]GlcNAc
# Outline: as §1
# [21] = target: Gal(b1-4)GlcNAc(b1-3)Gal(b1-4)GlcNAc(b1-3)Gal(b1-4)GlcNAc(b1-3)Gal(b1-4)GlcNAc(b1-3)Gal(b1-4)GlcNAc(b1-3)Gal(b1-4)GlcNAc(b1-2)Man(a1-3)[Gal(b1-4)GlcNAc(b1-3)Gal(b1-4)GlcNAc(b1-3)Gal(b1-4)GlcNAc(b1-3)Gal(b1-4)GlcNAc(b1-3)Gal(b1-4)GlcNAc(b1-3)Gal(b1-4)GlcNAc(b1-2)Man(a1-6)]Man(b1-4)GlcNAc(b1-4)GlcNAc
# Outline: as §1
# [22] = target: Gal(b1-4)GlcNAc(b1-3)Gal(b1-4)GlcNAc(b1-3)GalNAc
# Outline: as §1
# [23] = target: Gal(b1-4)GlcNAc(b1-3)Gal(b1-4)GlcNAc(b1-3)[Gal(b1-4)GlcNAc(b1-3)Gal(b1-4)GlcNAc(b1-6)]GalNAc
# Outline: as §1
binder,measurement,setting,value
Pwp6 (Candida glabrata) (protein) MGSSHHHHHHSSGLVPRGSHMASANLPKLTNICQIPDNVKKTSGFKGEIRRIGLFPPGGDYTYLLKFPSTGSTASDTISLTTKPQLSTSGWFPSLFGHTYFIKADLLVYMVAYFVPTETGEYTFKLVNSDDAAVMYVGNPSAFPCGSIDTWPEPRKEDINVCDKISASTKLYMEKGLAYPVRLVWYNGGGDGQFNAQFIDPSGTTHTDWNGYVWQYDACTDCDYK,glycan array binding signal (z-score),[1],-0.337
same,glycan array binding signal (z-score),[2],-0.37
same,glycan array binding signal (z-score),[3],0.091
same,glycan array binding signal (z-score),[4],-0.355
same,glycan array binding signal (z-score),[5],-0.186
same,glycan array binding signal (z-score),[6],-0.38
same,glycan array binding signal (z-score),[7],2.96
same,glycan array binding signal (z-score),[8],1.1
same,glycan array binding signal (z-score),[9],2.02
same,glycan array binding signal (z-score),[10],0.465
same,glycan array binding signal (z-score),[11],-0.392
same,glycan array binding signal (z-score),[12],1.7
same,glycan array binding signal (z-score),[13],1.81
same,glycan array binding signal (z-score),[14],0.941
same,glycan array binding signal (z-score),[15],5.06
same,glycan array binding signal (z-score),[16],3.31
same,glycan array binding signal (z-score),[17],0.492
same,glycan array binding signal (z-score),[18],2.07
same,glycan array binding signal (z-score),[19],1.2
same,glycan array binding signal (z-score),[20],1.1
same,glycan array binding signal (z-score),[21],2.71
same,glycan array binding signal (z-score),[22],1.39
same,glycan array binding signal (z-score),[23],2.91

# Some of the entries so far, as tab-separated lines.
binder	measurement	setting	value
Pwp6 (Candida glabrata) (protein) MGSSHHHHHHSSGLVPRGSHMASANLPKLTNICQIPDNVKKTSGFKGEIRRIGLFPPGGDYTYLLKFPSTGSTASDTISLTTKPQLSTSGWFPSLFGHTYFIKADLLVYMVAYFVPTETGEYTFKLVNSDDAAVMYVGNPSAFPCGSIDTWPEPRKEDINVCDKISASTKLYMEKGLAYPVRLVWYNGGGDGQFNAQFIDPSGTTHTDWNGYVWQYDACTDCDYK	glycan array binding signal (z-score)	[18]	2.07
same	glycan array binding signal (z-score)	[19]	1.2
